This note sets out measurements from publication PMC12499392.

Protein sequences, listed by entry. Tags and fused reporters are not part of them. Residues count along the entry.
UniProt P38646, residues 47-679: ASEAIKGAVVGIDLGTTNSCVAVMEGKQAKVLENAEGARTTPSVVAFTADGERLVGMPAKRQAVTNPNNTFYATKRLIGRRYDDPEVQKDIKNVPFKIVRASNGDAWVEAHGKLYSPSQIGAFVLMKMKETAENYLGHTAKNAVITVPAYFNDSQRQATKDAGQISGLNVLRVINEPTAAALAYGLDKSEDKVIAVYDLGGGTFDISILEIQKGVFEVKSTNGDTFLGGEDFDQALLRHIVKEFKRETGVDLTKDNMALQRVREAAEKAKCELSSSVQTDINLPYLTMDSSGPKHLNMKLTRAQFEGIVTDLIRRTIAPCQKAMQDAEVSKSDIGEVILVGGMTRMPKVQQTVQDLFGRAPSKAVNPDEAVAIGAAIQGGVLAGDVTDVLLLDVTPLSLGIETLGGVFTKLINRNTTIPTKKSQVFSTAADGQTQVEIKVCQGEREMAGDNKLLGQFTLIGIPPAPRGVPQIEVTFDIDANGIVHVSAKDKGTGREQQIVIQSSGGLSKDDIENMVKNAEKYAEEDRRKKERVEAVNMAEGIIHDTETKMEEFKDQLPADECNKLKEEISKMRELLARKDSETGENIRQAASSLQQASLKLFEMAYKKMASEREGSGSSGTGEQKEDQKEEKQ
UniProt P07305: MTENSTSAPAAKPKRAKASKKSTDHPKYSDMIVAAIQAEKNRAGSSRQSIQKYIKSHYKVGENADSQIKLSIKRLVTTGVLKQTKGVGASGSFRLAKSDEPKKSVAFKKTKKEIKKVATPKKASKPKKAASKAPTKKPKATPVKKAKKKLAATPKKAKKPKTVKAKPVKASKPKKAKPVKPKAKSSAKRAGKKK
UniProt P68871: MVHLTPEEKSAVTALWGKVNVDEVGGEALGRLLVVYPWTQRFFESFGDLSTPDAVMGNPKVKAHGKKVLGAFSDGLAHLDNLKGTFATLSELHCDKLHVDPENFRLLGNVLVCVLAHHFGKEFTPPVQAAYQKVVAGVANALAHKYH
UniProt Q15149: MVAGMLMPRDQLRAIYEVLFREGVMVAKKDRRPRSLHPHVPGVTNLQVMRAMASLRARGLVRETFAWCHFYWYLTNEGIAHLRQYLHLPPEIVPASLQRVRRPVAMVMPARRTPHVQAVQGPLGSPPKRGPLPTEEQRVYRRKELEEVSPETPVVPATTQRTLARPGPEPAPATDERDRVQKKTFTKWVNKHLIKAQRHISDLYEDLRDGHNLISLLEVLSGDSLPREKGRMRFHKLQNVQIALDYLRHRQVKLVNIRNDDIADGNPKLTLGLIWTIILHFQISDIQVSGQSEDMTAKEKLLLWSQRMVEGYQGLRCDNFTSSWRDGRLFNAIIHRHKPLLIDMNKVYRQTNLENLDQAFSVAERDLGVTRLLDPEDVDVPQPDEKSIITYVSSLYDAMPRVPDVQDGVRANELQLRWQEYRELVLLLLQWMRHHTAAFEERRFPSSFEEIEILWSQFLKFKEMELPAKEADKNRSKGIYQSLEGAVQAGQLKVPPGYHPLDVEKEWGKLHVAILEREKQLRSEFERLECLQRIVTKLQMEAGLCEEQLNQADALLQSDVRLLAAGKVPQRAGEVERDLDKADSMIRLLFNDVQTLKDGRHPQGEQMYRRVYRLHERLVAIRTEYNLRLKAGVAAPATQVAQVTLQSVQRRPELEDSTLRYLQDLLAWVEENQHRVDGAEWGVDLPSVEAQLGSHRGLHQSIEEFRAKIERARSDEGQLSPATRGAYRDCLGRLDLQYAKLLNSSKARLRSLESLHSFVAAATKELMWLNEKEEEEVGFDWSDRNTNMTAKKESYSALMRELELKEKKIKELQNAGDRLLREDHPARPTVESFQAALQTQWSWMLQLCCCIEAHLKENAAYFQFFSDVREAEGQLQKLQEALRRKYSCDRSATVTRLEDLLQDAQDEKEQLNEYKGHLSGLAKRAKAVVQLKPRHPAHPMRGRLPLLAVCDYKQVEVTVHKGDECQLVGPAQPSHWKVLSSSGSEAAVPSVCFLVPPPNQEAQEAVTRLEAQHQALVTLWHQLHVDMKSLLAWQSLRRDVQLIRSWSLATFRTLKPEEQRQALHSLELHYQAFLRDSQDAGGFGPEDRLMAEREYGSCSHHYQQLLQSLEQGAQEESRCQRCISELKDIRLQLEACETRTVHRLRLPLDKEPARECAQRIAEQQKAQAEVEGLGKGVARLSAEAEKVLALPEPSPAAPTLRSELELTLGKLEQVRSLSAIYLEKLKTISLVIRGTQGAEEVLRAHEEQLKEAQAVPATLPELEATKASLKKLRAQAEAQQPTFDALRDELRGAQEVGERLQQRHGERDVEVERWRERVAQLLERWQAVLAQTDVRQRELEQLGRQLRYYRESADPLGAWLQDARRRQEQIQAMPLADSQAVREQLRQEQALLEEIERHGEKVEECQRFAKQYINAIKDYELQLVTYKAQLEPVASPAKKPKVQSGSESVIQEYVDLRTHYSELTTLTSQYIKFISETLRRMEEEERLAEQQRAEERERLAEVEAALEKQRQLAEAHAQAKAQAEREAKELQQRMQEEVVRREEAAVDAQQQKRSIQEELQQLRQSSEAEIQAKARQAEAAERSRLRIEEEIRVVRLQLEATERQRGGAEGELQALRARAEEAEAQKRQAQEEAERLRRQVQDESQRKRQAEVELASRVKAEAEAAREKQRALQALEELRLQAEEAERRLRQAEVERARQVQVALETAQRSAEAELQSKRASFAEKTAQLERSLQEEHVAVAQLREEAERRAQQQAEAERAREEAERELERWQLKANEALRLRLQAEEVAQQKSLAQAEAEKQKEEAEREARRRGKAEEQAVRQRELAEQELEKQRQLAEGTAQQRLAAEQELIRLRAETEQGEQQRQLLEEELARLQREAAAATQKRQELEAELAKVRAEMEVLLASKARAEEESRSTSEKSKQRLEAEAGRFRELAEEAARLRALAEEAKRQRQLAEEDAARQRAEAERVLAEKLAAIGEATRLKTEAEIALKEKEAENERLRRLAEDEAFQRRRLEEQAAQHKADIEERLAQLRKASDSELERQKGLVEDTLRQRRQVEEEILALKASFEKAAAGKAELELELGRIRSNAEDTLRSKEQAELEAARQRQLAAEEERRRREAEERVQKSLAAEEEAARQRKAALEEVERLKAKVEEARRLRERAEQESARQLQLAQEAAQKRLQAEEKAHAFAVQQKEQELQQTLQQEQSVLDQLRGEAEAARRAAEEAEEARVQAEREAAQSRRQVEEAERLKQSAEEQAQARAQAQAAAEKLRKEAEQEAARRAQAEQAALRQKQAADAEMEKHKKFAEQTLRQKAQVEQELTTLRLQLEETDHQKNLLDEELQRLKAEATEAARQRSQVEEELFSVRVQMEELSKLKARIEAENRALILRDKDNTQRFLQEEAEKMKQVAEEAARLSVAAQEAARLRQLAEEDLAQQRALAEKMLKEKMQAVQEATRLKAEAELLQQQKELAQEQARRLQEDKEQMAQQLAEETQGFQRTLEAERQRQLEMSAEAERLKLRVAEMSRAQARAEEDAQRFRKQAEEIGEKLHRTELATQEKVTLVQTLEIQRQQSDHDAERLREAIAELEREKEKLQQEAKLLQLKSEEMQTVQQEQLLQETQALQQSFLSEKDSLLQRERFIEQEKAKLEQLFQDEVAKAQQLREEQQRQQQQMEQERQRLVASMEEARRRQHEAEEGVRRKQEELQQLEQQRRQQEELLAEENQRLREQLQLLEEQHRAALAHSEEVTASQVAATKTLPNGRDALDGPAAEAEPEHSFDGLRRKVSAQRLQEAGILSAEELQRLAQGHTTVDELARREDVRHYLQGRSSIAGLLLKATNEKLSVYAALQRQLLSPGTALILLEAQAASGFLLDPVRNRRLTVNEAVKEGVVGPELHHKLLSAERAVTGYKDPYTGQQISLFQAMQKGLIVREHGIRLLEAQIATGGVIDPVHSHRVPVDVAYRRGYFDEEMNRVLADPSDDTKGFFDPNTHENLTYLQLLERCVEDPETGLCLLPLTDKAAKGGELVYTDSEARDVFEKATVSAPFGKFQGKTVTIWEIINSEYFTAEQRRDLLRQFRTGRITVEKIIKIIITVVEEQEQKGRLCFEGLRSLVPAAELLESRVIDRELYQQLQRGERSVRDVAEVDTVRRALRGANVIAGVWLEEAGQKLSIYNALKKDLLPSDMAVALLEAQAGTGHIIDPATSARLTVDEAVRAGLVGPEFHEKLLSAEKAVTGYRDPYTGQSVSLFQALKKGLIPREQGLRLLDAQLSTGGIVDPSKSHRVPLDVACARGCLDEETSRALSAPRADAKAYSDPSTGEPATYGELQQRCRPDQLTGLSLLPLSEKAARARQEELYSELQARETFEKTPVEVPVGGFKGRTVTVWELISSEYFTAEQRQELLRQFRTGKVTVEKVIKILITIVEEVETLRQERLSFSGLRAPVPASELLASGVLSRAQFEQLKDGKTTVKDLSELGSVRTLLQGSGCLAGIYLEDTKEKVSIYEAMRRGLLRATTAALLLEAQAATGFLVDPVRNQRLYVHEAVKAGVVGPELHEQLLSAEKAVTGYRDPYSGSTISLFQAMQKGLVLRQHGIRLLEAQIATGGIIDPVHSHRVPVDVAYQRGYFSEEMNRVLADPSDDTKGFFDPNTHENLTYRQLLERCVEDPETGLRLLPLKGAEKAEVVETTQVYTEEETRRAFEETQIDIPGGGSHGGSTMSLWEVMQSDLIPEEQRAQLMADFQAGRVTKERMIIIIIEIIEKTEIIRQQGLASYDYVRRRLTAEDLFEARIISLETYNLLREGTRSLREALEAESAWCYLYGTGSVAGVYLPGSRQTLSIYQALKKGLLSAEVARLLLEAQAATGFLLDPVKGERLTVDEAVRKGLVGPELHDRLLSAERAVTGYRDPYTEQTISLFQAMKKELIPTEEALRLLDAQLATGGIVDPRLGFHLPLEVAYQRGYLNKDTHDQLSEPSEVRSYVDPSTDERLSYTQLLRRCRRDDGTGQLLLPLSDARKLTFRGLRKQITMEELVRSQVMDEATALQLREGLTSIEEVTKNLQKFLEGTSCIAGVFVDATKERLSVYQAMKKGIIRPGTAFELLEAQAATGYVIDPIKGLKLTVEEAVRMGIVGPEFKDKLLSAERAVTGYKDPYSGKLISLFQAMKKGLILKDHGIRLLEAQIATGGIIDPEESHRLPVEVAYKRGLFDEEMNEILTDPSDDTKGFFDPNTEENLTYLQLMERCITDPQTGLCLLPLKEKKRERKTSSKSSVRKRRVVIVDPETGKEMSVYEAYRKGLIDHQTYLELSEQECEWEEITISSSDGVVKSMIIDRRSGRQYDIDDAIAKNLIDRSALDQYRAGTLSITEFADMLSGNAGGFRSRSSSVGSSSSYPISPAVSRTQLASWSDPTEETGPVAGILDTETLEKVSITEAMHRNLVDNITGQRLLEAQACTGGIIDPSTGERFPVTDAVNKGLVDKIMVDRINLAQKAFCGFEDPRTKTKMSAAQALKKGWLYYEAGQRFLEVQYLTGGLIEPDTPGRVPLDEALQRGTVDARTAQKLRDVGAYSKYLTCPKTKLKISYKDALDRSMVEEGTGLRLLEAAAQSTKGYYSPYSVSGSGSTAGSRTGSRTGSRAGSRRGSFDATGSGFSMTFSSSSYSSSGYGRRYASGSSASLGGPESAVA
UniProt P05387: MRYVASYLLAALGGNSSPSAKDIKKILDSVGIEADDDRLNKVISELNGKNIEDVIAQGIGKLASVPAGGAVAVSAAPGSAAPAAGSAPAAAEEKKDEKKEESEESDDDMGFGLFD

Results are given in words; binding and its absence hold for the method and conditions named. In cells and extracts the contact can be indirect. These calls come from enrichment with a bait or labelling near it, and not all partners need be listed.

The assay deals with mortalin (human (endogenous in OV90, A2780, SKOV3, OVCAR3 and fallopian tube cells)) (UniProt P38646). Briefly: affinity purification with mass spectrometry; OV90, A2780, FT007 and FT032 cells treated with 10 x 10^-6 M SHetA2 or vehicle for 4 h; 500 ug lysate incubated overnight at 4 C with 10 ug D13H4 mortalin antibody coupled to agarose beads (Pierce Co-Immunoprecipitation Kit); LC-MS/MS; hits are proteins with less peak intensity in the precipitate after SHetA2.

Take H1F0 (from UniProt P07305 1-194): the binding entry was “binds”.

As for HBB (from UniProt P68871 1-147), the binding result is “binds”.

Turning to PLEC (from UniProt Q15149 1-4684), the binding entry is “binds”.

As for VCP (from UniProt P55072 1-806), the binding entry is given as “binds”.

Take CLTC (from UniProt Q00610 1-1675): the binding result is recorded as “binds”.

Take IQGAP1 (from UniProt P46940 1-1657): the binding result is given as “binds”.

With RPLP2 (from UniProt P05387 1-115), the binding result was “binds”.
